This assay in a line: qHTS Assay for Lipid Storage Modulators in Drosophila S3 Cells.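 On cell number change: cells counted by Cell Tracker Red CMTPX staining in the red channel.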 As to conditions: BODIPY lipid droplet fluorescence, 18-24 h; for cell number change: measured here: cell count max response, cells fed with added oleic acid. A digest of the protocol:
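Drosophila S3 cells got compounds at several concentrations plus oleic acid (400 uM solution). Laser-scanning cytometry with 488 nm excitation read lipid droplets at 500-530 nm and cells at 575-640 nm. Percent activity was relative to 20 uM Triacsin C.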

Where [1] appears, read: measured here: lipid fluorescence (Fed channel) AC50, cells fed with added oleic acid.
[2] abbreviates: measured here: cell number channel AC50, cells fed with added oleic acid.

Structures are written as SMILES. The list shows a part of the results. Shown are side measurements of this screen, not its main read-out; they come without a call. Most of these compounds were active or inconclusive in the main read-out, so they are no random draw. The note in brackets gives the kind of curve behind each potency; many fits are weak.

On to `CS(=O)(=O)Nc1ccc(C(=O)NCCSC2CCCCC2)cc1`, for which the cell number change was found to be 19.3%. In addition, the AC50 under setting [1] is 4.61 µM [rising, single point]. On to `O=C(Cc1ccc2c(c1)OCCO2)N1CCN(c2ccccc2)CC1`, for which the cell number change is -9.28%. Also, under setting [2], the AC50 is 0.00461 µM [falling, full curve, poor fit]. Consider `CSc1nc(-c2ccco2)nn1C(=O)CCc1ccccc1`, for which the cell number change is -4.21%.

Regarding `Cc1cccc(Nc2nc(-c3cccs3)cs2)n1`, the cell number change is -26%.

As for `CCc1ccc(CN(C)C(=O)CCc2nnc(CCc3cccc(OC)c3)o2)nc1`, the cell number change is -8.83%. Still for that read-out and setting: with `Cc1cc(S(=O)(=O)ON2C(=O)c3ccccc3C2=O)ccc1F` the figure was -6.57%.

Turning to `COc1ccccc1OCc1nnc(SCCN2CCOCC2)o1`, the cell number change stood at 33.5%. In addition, the AC50 under setting [2] is 4.11 µM [rising, full curve, poor fit]. For the same compound, the AC50 under setting [1] was 3.26 µM [rising, single point]. Turning to `CC(C)Oc1ccc(C(=O)NCc2cccs2)cc1`, the cell number change worked out at 38.3%. Moreover, the AC50 under setting [2] is 6.51 µM [rising, partial curve]. `Cc1cc2oc(=O)cc(CN3CCN(C/C=C/c4ccccc4)CC3)c2cc1O`: the cell number change was -11.1%. Further, the AC50 under setting [1] is 32.6 µM [falling, partial curve, poor fit]. On to `CCN(CC(=O)NC1CC1)S(=O)(=O)c1ccc(OC)cc1`, for which the cell number change is -17.6%. Moreover, the AC50 under setting [1] is 29.1 µM [rising, single point]. Turning to `Nc1cc(-c2ccccc2)nn1S(=O)(=O)c1ccc(F)cc1`, the cell number change is -31.3%. Under setting [2], the AC50 was 0.00651 µM [falling, full curve, poor fit]. Besides, the AC50 under setting [1] is 32.6 µM [falling, single point].

`COc1cccc2c1C(=O)C[C@]1(CCCC[C@@H]1C)O2`: the cell number change stood at 0.132%. `CCOC(=O)c1sc(NCc2ccco2)c(-c2nc3ccccc3s2)c1N`: the cell number change was -17.3%. The AC50 under setting [1] is 0.731 µM [rising, single point].

As to `O=C1C(=O)N(CCCn2ccnc2)C(c2ccc(Br)cc2)/C1=C(\O)c1ccc2c(c1)OCCO2` (configuration not stated), the cell number change worked out at 2.7%. Consider `O=C(Cn1c(=O)c2c(ncn2C2CCCC2)n(Cc2ccccc2)c1=O)N1CCc2ccccc21`, for which the cell number change is -14.1%. Besides, under setting [1], the AC50 is 0.092 µM [rising, full curve, poor fit].

Turning to `O=C(COc1cc2oc(=O)c3c(c2cc1Cl)CCC3)NCCCN1CCOCC1`, the cell number change was determined as 3.12%. Also, the AC50 under setting [1] is 0.651 µM [rising, full curve]. Consider `COC(=O)c1c(NC(=O)C(=O)N2CCOCC2)sc2c1CCCC2`, for which the cell number change is -0.472%. For the same compound, the AC50 under setting [1] is 0.58 µM [rising, single point]. Take `COc1cc(CNCc2cccnc2)ccc1OCC(=O)NC(C)(C)C`: the cell number change is 8.26%. Moreover, the AC50 under setting [1] was 10.3 µM [rising, single point]. As to `COc1ccc2nc(N3C(=O)/C(=C/c4ccccc4)NC3=S)sc2c1`, under setting [2], the AC50 is 23.1 µM [rising, partial curve]. As for `O=C(CSc1nncs1)Nc1cccc2ccccc12`, the AC50 by setting is: under setting [2], 0.461 µM [rising, partial curve]; under setting [1], 1.46 µM [rising, partial curve, poor fit].

As for `Oc1c(Br)cc(Cl)cc1C=Nc1ccc(N2CCOCC2)cc1`, the AC50 under setting [1] was 2.31 µM [rising, partial curve, poor fit]. For the compound `COc1cccc(C(=O)N/N=C/c2ccc(OC3CSC3)cc2)c1`, the cell number change came to 35.7%. The AC50 under setting [2] is 4.61 µM [rising, partial curve]. Further, the AC50 under setting [1] was 6.51 µM [rising, single point]. As to `CC(=O)c1ccc(N2CCN(C(=O)C3CCCN(c4ncnc5c4nc4n5CCCCC4)C3)CC2)cc1` (configuration not stated), the cell number change stood at 16.8%. For the same compound, the AC50 under setting [1] was 0.58 µM [rising, single point]. Regarding `Cc1ccnc(N2CCC(C(=O)Nc3ccc4c(c3)CCC4)CC2)n1`, the cell number change was -13.8%. Further, the AC50 under setting [1] is 1.03 µM [rising, full curve, poor fit]. `Cc1c(C)n(Cc2ccccc2)c2ncnc(NCCN(C)C)c12`: the cell number change was found to be 24.4%. For the same compound, the AC50 under setting [1] was 16.4 µM [rising, partial curve, poor fit]. As to `COc1ccc(NC(=O)c2ccccc2Cl)c(NC(=O)c2ccco2)c1`, the cell number change is 5.65%. With `O=C(c1ccc(N2CCCC2=O)cc1)N1CCN(c2ccccc2Cl)CC1`, the cell number change is 0.82%. Further, the AC50 under setting [1] is 25.9 µM [rising, single point].

Consider `CCc1nc(Nc2ccccc2)c2nnn(Cc3ccccc3)c2n1`, for which the cell number change was -32%. The AC50 under setting [2] is 20.6 µM [falling, partial curve, poor fit].

As for `COc1ccc(Cl)cc1C(=O)NCCCn1ccnc1`, the cell number change turned out to be 8.41%. Moreover, under setting [2], the AC50 was 6.51 µM [rising, single point]. Turning to `CCOC(=O)c1c(C)[nH]c(C(=O)OCCOc2ccc(Cl)cc2)c1C`, the cell number change is -35.3%. For the same compound, under setting [2], the AC50 was 8.2 µM [falling, partial curve, poor fit]. The half-maximal activity concentration (AC50) under setting [1] is 25.9 µM [falling, single point]. For the compound `CCCC(=O)N(CCc1ccccc1)Cc1nc2ccccc2c(=O)[nH]1`, the AC50 under setting [1] was 14.6 µM [rising, single point].

For the compound `COc1cc(C(c2c(O)cc(C)[nH]c2=O)c2c(O)cc(C)[nH]c2=O)ccc1O`, under setting [1], the AC50 was 0.58 µM [rising, single point]. On to `COc1ccc(N(CC(=O)NCCc2ccccc2)C(=O)CCC(=O)Nc2ccccn2)cc1`, for which the cell number change came out at 4.62%. On to `CCOC(=O)C1=C(O)/C(=C/c2cc(OC)c(OC)c(OC)c2)SC1=Nc1ccc(OC)cc1`, for which the cell number change worked out at 1.01%. In the case of `Cc1ccc(N(CC2CO2)S(=O)(=O)c2ccc(C)cc2)cc1` (configuration not stated), the cell number change was -22.2%. In addition, the half-maximal activity concentration (AC50) under setting [1] is 14.6 µM [falling, partial curve, poor fit]. As for `Cc1ccc(CN=c2c([N+](=O)[O-])nn(-c3ccc4c(c3)OCCO4)n2O)cc1`, the cell number change is -34.7%. For the same compound, under setting [2], the AC50 was 29.1 µM [falling, partial curve, poor fit]. In addition, the AC50 under setting [1] was 0.0291 µM [falling, full curve, poor fit]. Consider `O=C(O)CCc1ccc(-c2ccccc2)n1CC(=O)O`, for which the cell number change is -33.4%. Under setting [1], the AC50 was 29.1 µM [falling, single point].

Turning to `Cc1cccc(NC(=O)CCS(=O)(=O)c2cccc3nsnc23)c1C`, the cell number change is -12.4%. Further, the AC50 under setting [1] is 29.1 µM [falling, single point].

In the case of `O=C(/C=C/c1ccc(F)cc1)NC(=S)NNC(=O)[C@H]1C[C@@H]1c1ccccc1`, the cell number change came to 25.7%. Also, under setting [1], the AC50 is 20.6 µM [rising, partial curve]. With `CCOC(=O)C1CCN(S(=O)(=O)c2ccc3[nH]c4c(c3c2)CCCC4)CC1`, the cell number change is -25%. The AC50 under setting [1] is 29.1 µM [falling, single point].

By AC50 is commonly meant the midpoint of the concentration-response curve, whichever way the signal moves. A higher AC50 goes with activity only at high concentration.
